No constants are given. Whether binding was seen depends on the method and setting. Binding seen in cells or lysates may run through a third protein. Binding calls can cover weak binding; strength is not graded here. Where a sequence is shown, tags or fusion partners need not be part of it.
Biological target: V5-tagged RRV 26–95 gH, expressed alone (rhesus monkey rhadinovirus (RRV) isolate 26–95)

B1: myc-tagged full-length human Plxdc1 (receptor, UniProt Q8IUK5-1 19-500)
chain: LSPQPGAGHDEGPGSGWAAKGTVRGWNRRARESPGHVSEPDRTQLSQDLGGGTLAMDTLPDNRTRVVEDNHSYYVSRLYGPSEPHSRELWVDVAEANRSQVKIHTILSNTHRQASRVVLSFDFPFYGHPLRQITIATGGFIFMGDVIHRMLTATQYVAPLMANFNPGYSDNSTVVYFDNGTVFVVQWDHVYLQGWEDKGSFTFQAALHHDGRIVFAYKEIPMSVPEISSSQHPVKTGLSDAFMILNPSPDVPESRRRSIFEYHRIELDPSKVTSMSAVEFTPLPTCLQHRSCDACMSSDLTFNCSWCHVLQRCSSGFDRYRQEWMDYGCAQEAEGRMCEDFQDEDHDSASPDTSFSPYDGDLTTTSSSLFIDSLTTEDDTKLNPYAGGDGLQNNLSPKTKGTPVHLGTIVGIVLAVLLVAAIILAGIYINGHPTSNAALFFIERRPHHWPAMKFRSHPDHSTYAEVEPSGHEKEGFMEAEQC
binding: binds
